Source: patent publication US20160046678A1 (ZYNGENIA, published 2016)
Results are given in words; binding and its absence hold for the method and conditions named. Some results given as binding are weak or reduced against the parent protein; the word gives no strength.

Amino acid sequences for entries named in this document (tags omitted). Residues count along the entry.
UniProt P05231, residues 30-212: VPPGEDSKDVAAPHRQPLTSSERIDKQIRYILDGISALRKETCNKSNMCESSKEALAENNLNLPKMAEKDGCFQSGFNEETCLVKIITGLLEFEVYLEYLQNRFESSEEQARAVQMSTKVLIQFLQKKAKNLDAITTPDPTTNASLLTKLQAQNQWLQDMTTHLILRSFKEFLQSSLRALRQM
UniProt P21860, residues 20-643: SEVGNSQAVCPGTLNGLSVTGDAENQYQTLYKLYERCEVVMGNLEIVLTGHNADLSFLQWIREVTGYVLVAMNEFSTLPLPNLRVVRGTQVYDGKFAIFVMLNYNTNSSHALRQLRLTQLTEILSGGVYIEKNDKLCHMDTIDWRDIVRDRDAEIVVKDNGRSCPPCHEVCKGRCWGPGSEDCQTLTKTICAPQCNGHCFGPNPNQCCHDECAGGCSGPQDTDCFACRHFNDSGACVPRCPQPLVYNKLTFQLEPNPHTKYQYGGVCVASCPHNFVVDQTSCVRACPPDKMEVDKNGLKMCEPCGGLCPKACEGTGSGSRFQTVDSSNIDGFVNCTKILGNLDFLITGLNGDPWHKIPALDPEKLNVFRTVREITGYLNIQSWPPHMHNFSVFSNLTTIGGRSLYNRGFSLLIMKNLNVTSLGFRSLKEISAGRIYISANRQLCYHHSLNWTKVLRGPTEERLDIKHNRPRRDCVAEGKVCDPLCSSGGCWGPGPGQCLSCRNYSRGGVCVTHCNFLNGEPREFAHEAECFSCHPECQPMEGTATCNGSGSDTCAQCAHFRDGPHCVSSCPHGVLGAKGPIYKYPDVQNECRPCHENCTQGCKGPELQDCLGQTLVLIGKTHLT

B1: EGC1085 (peptide)
peptide: ASSETYCPFLNPYWYDQCMSRTSGGGSGGGSQAAAGGSYMHEPHMQVLEIMN

These binders were tested against IL6 (UniProt P05231) (assay: MRD identification, Example 48).

binding, binds:
HSFVYMHWFL [ILB99]
YMFHWPLFWLGQAG [ILB101]
TMQPHHIYGYGQAG [ILB105]
FCHHWRPVCLGQAG [ILB143]
GCTWLIDICTGQAG [ILB122]
WSYFNRSCAWDPLLMKCA [ILB244]
WPMITWLGWYGQAG [ILB100]
ECTHPVFVRPCWGQAG [ILB75]
LLTKYRTCHWDPLLMLCR [ILB246]
LVPPLFACFWDPLLMNCS [ILB243]
VGSDCMWDPLMMNCRYSY [ILB238]
VWTAFIQMNS [ILB73]
ECLWTSLECEGQAG [ILB151]
LRHFVQYCPWDPLLMACI [ILB233]
LPSSCYWDPLLMECSHRN [ILB242]
VCKWKQEYCKGQAG [ILB87]
SVSWCFWDPLVMQCKDHT [ILB226]
PCMRDWWMCGGQAG [ILB140]
WCLAGHVYCQGQAG [ILB130]
MQGWLWAKWW [ILB102]
IYAWWKWHWFGQAG [ILB104]
GVLKSGFRSLRCMARP [ILB135]
PMTMWWFFWKGQAG [ILB98]
MWMYGWWWAG [ILB76]
SLFMPQHNVHGQAG [ILB106]
MVFWDEFCSWDPLLMACR [ILB247]
IWHVFYMVQAGQAG [ILB94]
FTIGGPICGWDPLLMRCV [ILB234]
YIPPCHWDPLLMDCAQIQ [ILB240]
WYHWMKEHMWGQAG [ILB88]
TFTSCSWDPLLMDCTDFV [ILB249]
WPSWTYWYHF [ILB91]
PCPGFPPPMLCMGQAG [ILB139]
VCIPMATMCIGQAG [ILB158]
KCTHLPFQRNCSGQAG [ILB142]
SYIGYTYCPWDPLTMRCV [ILB232]
HQLQPYIQDL [ILB128]
GCWWVATECWGQAG [ILB114]
RCSIWKVYAMCM [ILB148]
VHFNCAWDPLMMRCNYDL [ILB228]
DEIPLWEFQF [ILB69]
ICVASICGLVC [ILB82]
FQESWSTWVEGQAG [ILB71]
NQLSSIMCHWDPLLMTCQ [ILB248]
RYMHMVWQHI [ILB96]
QRMEKFMHGS [ILB59]
MMMECHWDPLLMRCQNPK [ILB241]
SSFTVVSCMWDPLLMSCM [ILB245]
FSQMCGWDPLLMMCRSVN [ILB237]
FCIYYHNHMIWGQACQAGRCGSYCWWQDYAYKVGQAG [ILB77]
QNVNCLWDPLRMNCVEYK [ILB231]
LSLLCHWDPLIMRCSYDS [ILB239]
LLCSENWCRWDPLMMSCR [ILB236]
HHHKMWPQNKSADSHAYTMM [ILB89]
ACMLKTHRCKGPGR [ILB146]
RWHYWHQHWWGQAG [ILB84]
YFWHSLKTMM [ILB65]
RMSTCLWDPLLMNCKSLW [ILB229]
TSEPCFWDPLLMTCDYGS [ILB230]
YWPSLEWDWS [ILB107]
PWTYNWPWFM [ILB92]
MLDWVGRRPF [ILB60]

Each binder was assayed against ErbB3 (UniProt P21860) (assay: MRD screen, Example 48).

binding, binds:
LGEPYCPFLNPYWYDQCMSRT [EGC1084]
B1
LGEPYCPFLNPFWYDQCIARN [EGC1083]
